From patent US10532113B2 (Ramot at Tel-Aviv University Ltd., priority 2014, dated 2020)

Experiment: general procedure: Fmoc solid-phase peptide synthesis; 2-chlorotrityl chloride beads
Settings: late stage modification step

MA-Gly-Phe-Leu-Gly-PABA
step yield: 53%
